# PubChem BioAssay AID504444 (National Center for Advancing Translational Sciences (NCATS), 2011)
# In all, about 360,000 compounds went through this assay and about 7,500 (2.1%) were called active. The shares of active, inactive and inconclusive entries below differ from those in the screen. Calls come from the whole dose curve; as a rule, active = well fitted inhibition curve with a large enough effect; inconclusive = small, poorly fitted or top-dose-only effect, or effect the other way; inactive = flat fitted curve, though single readings scatter. A potency beside an inconclusive call is a rough fit, not a confirmed value.
# Assay: Nrf2 qHTS screen for inhibitors; note: nearly all actives have a fitted effect of over 60% in size
# Conditions: A549 ARE-Fluc reporter, luciferase luminescence, 18-24 h; series mostly up to 46 µM
# How it was run: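 A549 ARE_Fluc cells, 5000/well, 5% FBS OPTI-MEM; compounds in dose-response, 18-24 h at 37 °C/5% CO2; CellTiter-Fluor viability read (Ex 405/Em 525), then BugLite luciferase luminescence = Nrf2 activity.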
# Potency is the fitted concentration of half-maximal effect.
row,Structure (SMILES),Potency
1,CC(=O)c1ccc(OCC(O)CN2CCN(CC(O)COc3ccc(C(C)=O)cc3)CC2)cc1 (stereo not drawn),inactive
2,COc1ccccc1C1=NNC(=Nc2cccc(S(=O)(=O)N(C)C)c2)SC1,"inconclusive: 20.6 µM [falling, single point]"
3,COc1ccc(NC(=O)CN(C)C(=O)c2cccc(S(=O)(=O)N3CCN(Cc4ccccc4)CC3)c2)cc1,"inconclusive: 16.4 µM [falling, partial curve]"
4,CCOc1ccc(NC(=O)c2ccc(-c3ccccc3)s2)cc1,inactive
5,CC(C)NCC(O)COC1CCC(C(C)(C)C)CC1 (stereo not drawn),"inconclusive: 29.1 µM [activator, single point]"
6,Cc1cccc(SC2CCN(C(=O)C3CCC(=O)N(C4CC4)C3)CC2)c1 (stereo not drawn),"inconclusive: 16.4 µM [falling, partial curve, poor fit]"
7,CCCCN(C)CCNC(=O)c1cc2c(-c3cccc(OC)c3)nn(C)c2s1,"inconclusive: 0.82 µM [activator, full curve, poor fit]"
8,CCN(c1ccccc1)S(=O)(=O)c1ccc(NC(=O)c2cc(=O)c3cc(C)c(C)cc3o2)cc1,inactive
9,O=C(CC(NS(=O)(=O)c1ccc(Cl)cc1)c1ccco1)N1CCc2ccccc21 (stereo not drawn),"inconclusive: 32.6 µM [falling, single point]"
10,COc1cccc(NC(=O)CN(C)C(=O)c2cc(-c3cccc(Br)c3)nc3ccccc23)c1,"inconclusive: 14.6 µM [falling, single point]"
11,CC(=O)Nc1cccc(NC(=O)c2cc(-c3cccnc3)nc3ccc(Cl)cc23)c1,"inconclusive: 29.1 µM [falling, single point]"
12,CCOC(=O)C(=Cc1ccc(-n2cncn2)cc1)C(=O)OCC,active: 18.4 µM
13,CCNc1nc(NCC)nc(SCC(C)=O)n1,"inconclusive: 2.06 µM [activator, partial curve, poor fit]"
14,Cc1ccc(N2CCN(C(=S)c3ccc(N(C)C)cc3)CC2)cc1,"inconclusive: 20.6 µM [activator, partial curve]"
15,Cc1cc(NC(=O)c2sc(Nc3ccc(F)cc3)nc2N)no1,"inconclusive: 9.2 µM [activator, partial curve, poor fit]"
16,CC1CCN(C(=O)c2cnn(-c3cccc(Cl)c3)c2C2CCN(C(=O)OC(C)(C)C)CC2)CC1,"inconclusive: 29.1 µM [activator, single point]"
17,COc1cccc(CNC(=O)c2ccc(C)c(S(=O)(=O)N3CCCCC3)c2)c1,"inconclusive: 20.6 µM [falling, single point]"
18,COc1ccccc1/C=N/NC(=O)c1cc2c(OC)c(OC)ccc2[nH]1,inactive

# Some values from the list:
# In Potency, `CCOc1ccc(NC(=O)c2ccc(-c3ccccc3)s2)cc1` is entered as inactive
# In Potency, `CCNc1nc(NCC)nc(SCC(C)=O)n1` is entered as inconclusive: 2.06 µM [activator, partial curve, poor fit]
